From article PMC8741850
Results are given in words; binding and its absence hold for the method and conditions named. Binding seen in cells or lysates may run through a third protein. Some entries that bind do so weakly or less than the wild type.

Protein sequences, listed by entry. Tags and fused reporters are not part of them. Lines headed by an entry give the natural chain unless they say otherwise; changes in a name come on top.
UniProt P27008: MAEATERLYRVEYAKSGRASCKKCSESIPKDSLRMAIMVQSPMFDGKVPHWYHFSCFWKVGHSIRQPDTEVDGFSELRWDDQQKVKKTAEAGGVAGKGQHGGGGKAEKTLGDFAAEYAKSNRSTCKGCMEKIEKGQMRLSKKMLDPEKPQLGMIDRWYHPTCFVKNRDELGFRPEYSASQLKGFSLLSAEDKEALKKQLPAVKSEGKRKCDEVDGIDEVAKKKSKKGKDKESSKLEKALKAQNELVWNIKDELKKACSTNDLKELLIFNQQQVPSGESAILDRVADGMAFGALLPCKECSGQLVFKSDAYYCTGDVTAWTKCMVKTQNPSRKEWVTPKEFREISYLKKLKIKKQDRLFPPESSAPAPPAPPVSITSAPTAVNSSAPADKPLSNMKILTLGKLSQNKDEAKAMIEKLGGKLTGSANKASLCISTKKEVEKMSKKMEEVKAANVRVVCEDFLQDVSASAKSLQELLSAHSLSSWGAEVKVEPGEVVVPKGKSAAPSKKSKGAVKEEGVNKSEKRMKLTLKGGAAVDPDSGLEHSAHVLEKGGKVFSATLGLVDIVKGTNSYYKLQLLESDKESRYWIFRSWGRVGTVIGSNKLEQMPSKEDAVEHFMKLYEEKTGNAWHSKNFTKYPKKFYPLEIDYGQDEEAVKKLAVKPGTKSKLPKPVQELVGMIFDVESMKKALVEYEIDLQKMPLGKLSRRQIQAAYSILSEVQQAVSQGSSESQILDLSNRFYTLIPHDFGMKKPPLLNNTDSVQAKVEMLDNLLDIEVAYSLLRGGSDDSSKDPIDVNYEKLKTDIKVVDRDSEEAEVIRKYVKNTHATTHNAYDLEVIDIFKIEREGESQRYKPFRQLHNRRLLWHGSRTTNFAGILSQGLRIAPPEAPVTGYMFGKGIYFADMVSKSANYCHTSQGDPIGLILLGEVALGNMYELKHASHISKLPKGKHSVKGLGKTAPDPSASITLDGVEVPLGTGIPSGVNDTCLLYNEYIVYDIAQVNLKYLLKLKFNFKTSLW

Tests used:
[1] = molecular target: T1, CCAAT/enhancer-binding protein beta (C/EBPβ), endogenous (rat (endogenous in NRCMs and rat heart)) (UniProt P21272); assay: co-IP; NRCM lysates precipitated with anti-C/EBPβ antibody, blots for PARP1, PAR or SUMO1; cells infected or transfected with WT PARP1 or E988K, siPARP1, 3AB (20 μmol/L), PE (100 μmol/L)
T1 sequence: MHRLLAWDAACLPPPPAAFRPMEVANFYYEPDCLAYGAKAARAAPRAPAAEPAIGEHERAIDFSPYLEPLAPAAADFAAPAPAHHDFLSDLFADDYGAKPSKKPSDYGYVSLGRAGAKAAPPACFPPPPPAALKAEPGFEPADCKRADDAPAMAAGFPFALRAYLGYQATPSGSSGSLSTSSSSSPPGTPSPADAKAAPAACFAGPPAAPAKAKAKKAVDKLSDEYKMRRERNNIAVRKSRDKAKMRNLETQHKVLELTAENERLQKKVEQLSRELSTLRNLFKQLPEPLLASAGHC

[2] = molecular target: T1, CCAAT/enhancer-binding protein beta (C/EBPβ), endogenous (rat (endogenous in NRCMs and rat heart)); assay: co-IP; rat heart tissue lysate precipitated with anti-C/EBPβ antibody, Western blot; Sham, AAC, AAC with 3AB

Row | Substance | binding [1] | binding [2]
1 | PARP1 (E988K) mutant (from UniProt P27008 1-1014) (enzyme) | binds | 
2 | PARP1, wild type, overexpressed in NRCMs (Ad-PARP1) (from UniProt P27008 1-1014) (enzyme) | binds | 
3 | Poly(ADP-ribose) polymerase-1 (PARP1), endogenous (from UniProt P27008 1-1014) (enzyme) | binds | binds
